± gives the standard deviation of the averaged measurements. The effect of the compound repeats well; differences between the knockouts mostly do not.
Columns and labels:
BT-20 = test: relative cell number vs DMSO control (72 h) (% of DMSO); higher = less growth inhibition (more cells)
Procedure: (§1)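 QMAP-Seq: a pool of 5 breast cancer cell lines (ZR-75-1, SKBR3, HCC-38, MDA-MB-231, BT-20), each carrying 12 doxycycline-inducible Cas9 sgRNA perturbations (11 knockouts plus non-targeting sgNT), was treated with compounds for 72 h at four 10-fold doses (10 nM-10 uM or 1 nM-1 uM range). Barcodes were amplified and sequenced, and cell number was interpolated from 293T spike-in standard curves. The result is expressed as % of the median of DMSO wells. Two biological replicates.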

HCC-38 = test: as above
Procedure: as §1

Cc1ccc2c(c1)C(=O)C1(O)CCN(c3ccccc3)C1=N2 (stereo unspecified) [Blebbistatin]
relative cell number
Details | BT-20 | HCC-38
sgRNA knockout: sgATF3, 10 nM | 108 ± 18 | 132 ± 11
sgRNA knockout: sgATF3, 100 nM | 119 ± 22 | 139 ± 3.7
sgRNA knockout: sgATF3, 1000 nM | 122.2 ± 0.98 | 117 ± 5.9
sgRNA knockout: sgATF3, 10000 nM | 120 ± 7.1 | 73.3 ± 9.9
sgRNA knockout: sgATF4, 10 nM | 111 ± 12 | 124 ± 1.8
sgRNA knockout: sgATF4, 100 nM | 138.9 ± 0.93 | 122 ± 3.6
sgRNA knockout: sgATF4, 1000 nM | 117 ± 9.3 | 109 ± 6
sgRNA knockout: sgATF4, 10000 nM | 119 ± 14 | 70.8 ± 7.7
sgRNA knockout: sgATF6, 10 nM | 110 ± 13 | 124 ± 20
sgRNA knockout: sgATF6, 100 nM | 120 ± 1.8 | 134 ± 32
sgRNA knockout: sgATF6, 1000 nM | 120 ± 10 | 136 ± 9.8
sgRNA knockout: sgATF6, 10000 nM | 114 ± 18 | 71.5 ± 8.9
sgRNA knockout: sgATG7, 10 nM | 121 ± 5.4 | 115 ± 24
sgRNA knockout: sgATG7, 100 nM | 127 ± 1 | 118 ± 20
sgRNA knockout: sgATG7, 1000 nM | 126 ± 22 | 112 ± 4.7
sgRNA knockout: sgATG7, 10000 nM | 112 ± 17 | 67.2 ± 7.1
sgRNA knockout: sgERN1, 10 nM | 112 ± 24 | 128 ± 13
sgRNA knockout: sgERN1, 100 nM | 144 ± 4.3 | 119 ± 9.6
sgRNA knockout: sgERN1, 1000 nM | 115 ± 19 | 116 ± 19
sgRNA knockout: sgERN1, 10000 nM | 128 ± 9 | 72.6 ± 11
sgRNA knockout: sgHSF1, 10 nM | 97.6 ± 17 | 125 ± 11
sgRNA knockout: sgHSF1, 100 nM | 132 ± 8.8 | 166 ± 32
sgRNA knockout: sgHSF1, 1000 nM | 109 ± 9.5 | 123 ± 3.5
sgRNA knockout: sgHSF1, 10000 nM | 121 ± 21 | 71.9 ± 12
sgRNA knockout: sgHSF2, 10 nM | 111 ± 15 | 139 ± 10
sgRNA knockout: sgHSF2, 100 nM | 137 ± 6.8 | 151 ± 22
sgRNA knockout: sgHSF2, 1000 nM | 135 ± 17 | 135 ± 26
sgRNA knockout: sgHSF2, 10000 nM | 144 ± 38 | 73.3 ± 4.9
sgRNA knockout: sgKEAP1, 10 nM | 110.7 ± 0.15 | 134.22 ± 0.061
sgRNA knockout: sgKEAP1, 100 nM | 127 ± 13 | 154 ± 27
sgRNA knockout: sgKEAP1, 1000 nM | 123 ± 2.4 | 150 ± 15
sgRNA knockout: sgKEAP1, 10000 nM | 124 ± 25 | 85.7 ± 16
sgRNA knockout: sgNFE2L2, 10 nM | 132 ± 23 | 117 ± 16
sgRNA knockout: sgNFE2L2, 100 nM | 151 ± 12 | 116 ± 15
sgRNA knockout: sgNFE2L2, 1000 nM | 130 ± 7.3 | 107.3 ± 0.34
sgRNA knockout: sgNFE2L2, 10000 nM | 128 ± 29 | 71.5 ± 16
sgRNA knockout: sgSLC35F2, 10 nM | 106.1 ± 0.94 | 121 ± 11
sgRNA knockout: sgSLC35F2, 100 nM | 131 ± 12 | 130 ± 7.6
sgRNA knockout: sgSLC35F2, 1000 nM | 117 ± 2.7 | 122 ± 12
sgRNA knockout: sgSLC35F2, 10000 nM | 97.4 ± 11 | 74.2 ± 5
sgRNA knockout: sgXBP1, 10 nM | 119 ± 14 | 125 ± 3.9
sgRNA knockout: sgXBP1, 100 nM | 133 ± 27 | 124 ± 15
sgRNA knockout: sgXBP1, 1000 nM | 124 ± 8.8 | 119 ± 18
sgRNA knockout: sgXBP1, 10000 nM | 117 ± 14 | 68.7 ± 4.7

CC(C)(C(=O)NCC(F)(F)C(F)(F)F)C(=O)N[C@@H]1C(=O)Nc2ccccc2-c2ccccc21
relative cell number
Details | BT-20 | HCC-38
sgRNA knockout: sgATF3, 10 nM | 96.2 ± 18 | 115 ± 7.3
sgRNA knockout: sgATF3, 100 nM | 105 ± 3.9 | 119 ± 8.1
sgRNA knockout: sgATF3, 1000 nM | 113 ± 9.5 | 101 ± 11
sgRNA knockout: sgATF3, 10000 nM | 120 ± 21 | 120.7 ± 1.2
sgRNA knockout: sgATF4, 10 nM | 104 ± 32 | 117.34 ± 0.087
sgRNA knockout: sgATF4, 100 nM | 122 ± 5.7 | 105 ± 4.8
sgRNA knockout: sgATF4, 1000 nM | 119.4 ± 0.61 | 107 ± 4.5
sgRNA knockout: sgATF4, 10000 nM | 123 ± 5.5 | 109 ± 3.5
sgRNA knockout: sgATF6, 10 nM | 105 ± 15 | 100 ± 41
sgRNA knockout: sgATF6, 100 nM | 100.4 ± 0.59 | 125 ± 4.4
sgRNA knockout: sgATF6, 1000 nM | 92.5 ± 6.9 | 108 ± 1.8
sgRNA knockout: sgATF6, 10000 nM | 116 ± 12 | 121 ± 7.2
sgRNA knockout: sgATG7, 10 nM | 98.8 ± 15 | 123 ± 1.5
sgRNA knockout: sgATG7, 100 nM | 109 ± 2.6 | 108 ± 18
sgRNA knockout: sgATG7, 1000 nM | 104 ± 3.2 | 104 ± 6.9
sgRNA knockout: sgATG7, 10000 nM | 111 ± 5.7 | 122 ± 4.3
sgRNA knockout: sgERN1, 10 nM | 98.4 ± 30 | 111 ± 4.4
sgRNA knockout: sgERN1, 100 nM | 106 ± 3 | 108 ± 1.3
sgRNA knockout: sgERN1, 1000 nM | 107 ± 17 | 115 ± 5.1
sgRNA knockout: sgERN1, 10000 nM | 116 ± 19 | 115 ± 2.4
sgRNA knockout: sgHSF1, 10 nM | 88 ± 17 | 100 ± 35
sgRNA knockout: sgHSF1, 100 nM | 103 ± 6.4 | 140 ± 6.1
sgRNA knockout: sgHSF1, 1000 nM | 110 ± 2 | 123 ± 31
sgRNA knockout: sgHSF1, 10000 nM | 108 ± 3.5 | 118 ± 18
sgRNA knockout: sgHSF2, 10 nM | 89.6 ± 12 | 117 ± 22
sgRNA knockout: sgHSF2, 100 nM | 113 ± 2.9 | 122 ± 9.6
sgRNA knockout: sgHSF2, 1000 nM | 132 ± 12 | 107 ± 11
sgRNA knockout: sgHSF2, 10000 nM | 124 ± 2.9 | 122 ± 11
sgRNA knockout: sgKEAP1, 10 nM | 96.6 ± 2.2 | 125 ± 60
sgRNA knockout: sgKEAP1, 100 nM | 87.6 ± 11 | 131 ± 2.9
sgRNA knockout: sgKEAP1, 1000 nM | 100 ± 5.5 | 121 ± 7.3
sgRNA knockout: sgKEAP1, 10000 nM | 113 ± 2.3 | 148 ± 29
sgRNA knockout: sgNFE2L2, 10 nM | 111 ± 43 | 119 ± 18
sgRNA knockout: sgNFE2L2, 100 nM | 125 ± 3.3 | 99.5 ± 11
sgRNA knockout: sgNFE2L2, 1000 nM | 124 ± 14 | 103.2 ± 0.62
sgRNA knockout: sgNFE2L2, 10000 nM | 138 ± 11 | 106 ± 1.4
sgRNA knockout: sgSLC35F2, 10 nM | 92.6 ± 27 | 112 ± 12
sgRNA knockout: sgSLC35F2, 100 nM | 105 ± 2.7 | 107 ± 2.3
sgRNA knockout: sgSLC35F2, 1000 nM | 96.8 ± 7.1 | 101 ± 13
sgRNA knockout: sgSLC35F2, 10000 nM | 122 ± 5.8 | 110 ± 9.8
sgRNA knockout: sgXBP1, 10 nM | 108 ± 13 | 113 ± 12
sgRNA knockout: sgXBP1, 100 nM | 123.4 ± 0.67 | 110 ± 8.2
sgRNA knockout: sgXBP1, 1000 nM | 123 ± 15 | 107 ± 8.5
sgRNA knockout: sgXBP1, 10000 nM | 129 ± 12 | 109 ± 5.3

— the supplement of paper PMC7661543
